A short description of the assay: qHTS Assay for Lipid Storage Modulators in Drosophila S3 Cells.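 On cell number change: cells counted by Cell Tracker Red CMTPX staining in the red channel.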 The following applies: BODIPY lipid droplet fluorescence, 18-24 h; for cell number change: measured here: cell count max response, cells fed with added oleic acid. In a few lines: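 Drosophila S3 cells got compounds at several concentrations plus oleic acid (400 uM solution). Laser-scanning cytometry with 488 nm excitation read lipid droplets at 500-530 nm and cells at 575-640 nm. Percent activity was relative to 20 uM Triacsin C.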
Background: qHTS replaces the single test concentration by a dilution series.

The mark [1] stands for this setting: measured here: lipid fluorescence (Fed channel) AC50, cells fed with added oleic acid.
Setting [2] is: measured here: cell number channel AC50, cells fed with added oleic acid.

Some of the results follow. The main result of the screen is listed elsewhere. These columns were measured beside it and carry no call. The list favours compounds with an active or inconclusive main result. Potencies come from curve fits of mixed quality, noted in brackets.

As a reminder, the AC50 is the concentration at which the activity in the assay is half-maximal. Read a low AC50 as greater potency. Take `O=C(O)/C(=C\c1ccc(Cl)c([N+](=O)[O-])c1)c1ccc(S(=O)(=O)N2CCCC2)s1`: the cell number change worked out at 28.2%. The half-maximal activity concentration (AC50) under setting [1] is 13 µM [rising, partial curve, poor fit].

Regarding `C#CCSc1n[nH]c(-c2ccco2)n1`, the cell number change is -1.59%. The AC50 under setting [1] was 0.517 µM [falling, single point].

For the molecule `CCCc1nc2c(ccc3ccccc32)cc1CC`, the cell number change worked out at 4.17%. For the same molecule, the AC50 under setting [2] is 0.103 µM [rising, partial curve, poor fit].

For the molecule `Cc1ccc(Cn2c(N3CCNCC3)nc3c2c(=O)[nH]c(=O)n3C)cc1`, the cell number change worked out at 40.7%. Moreover, the AC50 under setting [2] is 7.31 µM [rising, partial curve, poor fit].

In the case of `CCN1C(=O)c2ccccc2S(=O)c2ccc(C(=O)N3CCN(C(=O)c4ccco4)CC3)cc21` (configuration not stated), the cell number change is 4.39%. Besides, the half-maximal activity concentration (AC50) under setting [1] was 18.4 µM [rising, partial curve, poor fit].

As for `COC(=O)c1ccc(Cl)cc1N(Cc1c(F)cccc1Cl)S(C)(=O)=O`, the cell number change was found to be 1.06%. The AC50 under setting [1] was 29.1 µM [falling, single point].

In the case of `O=C(Nc1ccc(N2CCCCCC2)cc1)c1cccc(S(=O)(=O)N2CCOCC2)c1`, the cell number change was -22.2%. In addition, the concentration at half-maximal activity (AC50) under setting [1] was 29.1 µM [falling, single point].

In the case of `O=c1[nH]c2cccc(Cl)c2n(CCNc2ncc(C(F)(F)F)cc2Cl)c1=O`, the cell number change was -55.1%. In addition, under setting [2], the AC50 is 16.4 µM [falling, single point].

On to `Cc1ccc(-n2c(SCC(=O)Nc3nccs3)nc3c(c2=O)SCC3)cc1`, for which the cell number change came to 3.37%. The concentration at half-maximal activity (AC50) under setting [1] was 1.64 µM [rising, partial curve].

As to `Cc1c(C(=O)NCCCN2CCOCC2)sc2ncnc(N3CCN(c4ccccc4)CC3)c12`, the cell number change is -2.03%. Also, the AC50 under setting [1] was 0.461 µM [rising, partial curve, poor fit].

Turning to `CCn1cc(Cl)c(C(=O)Nc2cccc(CN3CCOCC3)c2)n1`, the cell number change was -0.567%. Moreover, under setting [1], the AC50 was 29.1 µM [falling, single point].

For `Cc1ccc(S(=O)(=O)NCc2ccco2)cc1C`, the AC50 under setting [1] is 0.00461 µM [falling, full curve, poor fit].

In the case of `CCOC(=O)c1ccc(NCn2c(=O)oc3ccccc32)cc1`, the cell number change amounted to 34.4%. The AC50 under setting [2] was 16.4 µM [rising, single point].

For `CC(=O)N1CCc2cc(S(=O)(=O)NC(CC(C)C)C(=O)Nc3cc(C(=O)O)ccc3C)ccc21` (configuration not stated), the cell number change was -107%. Moreover, under setting [2], the AC50 is 23.1 µM [falling, partial curve]. In addition, the AC50 under setting [1] was 5.8 µM [falling, full curve].

For the molecule `COc1ccc(/C(N)=N/OC(=O)N2CCOCC2)cc1`, the cell number change amounted to 2.27%. For the same molecule, under setting [1], the AC50 was 1.03 µM [falling, full curve].

For `CCCCn1c(N)c(N(CCC(C)C)C(=O)c2ccc3c(c2)OCCO3)c(=O)[nH]c1=O`, the cell number change is -15.2%. For the same molecule, under setting [1], the half-maximal activity concentration (AC50) is 1.84 µM [rising, full curve, poor fit].

Turning to `O=C(Cn1cnc2ccccc2c1=O)N1CCN(S(=O)(=O)c2ccc(F)cc2)CC1`, the cell number change turned out to be 4.01%. Also, the half-maximal activity concentration (AC50) under setting [2] is 2.06 µM [rising, single point]. Under setting [1], the half-maximal activity concentration (AC50) is 2.06 µM [rising, single point].

For the molecule `Cc1ccc(S(=O)(=O)N2CCCCC2CCNC(=O)C(=O)NCCc2ccco2)cc1` (configuration not stated), the cell number change was 17.1%. Moreover, the concentration at half-maximal activity (AC50) under setting [1] was 0.184 µM [falling, full curve, poor fit].

For `NC(=O)NC(=O)CSc1nnc(-c2ccco2)n1Cc1ccccc1`, under setting [1], the AC50 is 29.1 µM [rising, single point].

Take `CCOc1ccc(N2CC(C(=O)Nc3ccccn3)CC2=O)cc1` (configuration not stated): the cell number change was found to be 11%.

In the case of `COc1ccc(C(=O)N2CCN(S(=O)(=O)c3cc(Cl)ccc3OC)CC2)cc1`, the AC50 reads like this: under setting [2], 4.61 µM [rising, single point]; under setting [1], 6.51 µM [rising, single point].

For `COc1ccc(O)c(/C=C(\C#N)C(=O)Nc2cccnc2)c1`, the cell number change was 8.08%. The concentration at half-maximal activity (AC50) under setting [2] was 0.184 µM [falling, full curve, poor fit]. In addition, the concentration at half-maximal activity (AC50) under setting [1] is 0.291 µM [falling, partial curve].

As to `COc1ccc(C2CC(c3ccccc3)=NN2C(=O)COC(=O)c2cnc(Cl)c(Cl)c2)cc1` (configuration not stated), the cell number change is -48.9%. In addition, under setting [2], the AC50 is 4.61 µM [falling, full curve]. Also, under setting [1], the AC50 is 29.1 µM [falling, single point].

`C=COC(=O)CSc1nc(-c2cccs2)ccc1C#N`: the cell number change is -22.2%. Also, under setting [1], the AC50 is 6.51 µM [rising, partial curve, poor fit].

Turning to `O=C(C1CCN(S(=O)(=O)c2cnc[nH]2)CC1)N(CCc1ccccc1)Cc1ccccc1`, the cell number change is -13%.

For `Cc1ccc(CC(=O)NC(C)CCc2ccccc2)cc1` (configuration not stated), the cell number change was -10.3%.

Turning to `Cc1[nH]c2ccc(C(=O)NCc3ccccn3)cc2c1C`, the cell number change worked out at 2.45%.

With `O=C(c1ccccc1NS(=O)(=O)c1ccccc1)N1CCCCCC1`, the cell number change is 6.2%. Further, the half-maximal activity concentration (AC50) under setting [1] is 29.1 µM [rising, single point].

Regarding `O=C(Nc1ccccc1C(=O)O)c1ccc(NC(=O)C2CCCCC2)cc1`, the cell number change came out at 19.1%. Besides, the AC50 under setting [1] was 20 µM [rising, single point].

Regarding `CC(C)C[C@H](N)c1nnc(S(=O)(=O)Cc2cccc(F)c2)o1`, the cell number change was -88.6%. In addition, the half-maximal activity concentration (AC50) under setting [2] is 16.4 µM [falling, partial curve, poor fit]. Besides, the AC50 under setting [1] is 29.1 µM [falling, single point].

Take `O=C(CSc1cccc(C(F)(F)F)c1)N1CCN(S(=O)(=O)c2ccccc2)CC1`: the cell number change was determined as 16.2%. Under setting [2], the concentration at half-maximal activity (AC50) was 1.64 µM [rising, partial curve, poor fit].

Consider `C=CCN1C(=O)C(CC(=O)O)SC1=Nc1ccc(C)cc1` (configuration not stated), for which the cell number change stood at 8.66%. Also, the AC50 under setting [1] was 29.1 µM [rising, single point].

On to `Cc1nc(CN2CCN(C(=O)NC3(c4ccccc4)CC3)CC2)cs1`, for which the cell number change was -3.91%. The half-maximal activity concentration (AC50) under setting [1] was 0.146 µM [falling, full curve, poor fit].

Regarding `Cc1cccn2c(=O)c3cc(S(=O)(=O)c4ccccc4)c(=N)n(CC4CCCO4)c3nc12` (configuration not stated), under setting [2], the half-maximal activity concentration (AC50) is 0.0326 µM [rising, full curve, poor fit].

On to `CCc1ccc(C(=O)C(C)OC(=O)Cn2[nH]c(=O)c3ccccc3c2=O)cc1` (configuration not stated), for which the cell number change was -10.6%. Besides, the AC50 under setting [2] was 0.651 µM [falling, single point]. The AC50 under setting [1] was 0.461 µM [falling, single point].

With `C#CCn1c2ccccc2c2nc3ccccc3nc21`, the half-maximal activity concentration (AC50) under setting [1] was 0.13 µM [rising, full curve, poor fit].

For the molecule `O=P(O)(c1ccc(Cl)cc1)c1ccc(Cl)cc1`, the cell number change is -1.9%. For the same molecule, the half-maximal activity concentration (AC50) under setting [1] is 29.1 µM [falling, partial curve].

As for `Cc1ccc(C)c(NC(=O)c2nnn(Cc3ccccc3C)c2N)c1`, the cell number change was -14.2%. The concentration at half-maximal activity (AC50) under setting [2] is 6.51 µM [falling, single point]. Under setting [1], the concentration at half-maximal activity (AC50) is 6.51 µM [falling, single point].

As to `NC(=O)COC(=O)CCSc1ccc(Cl)cc1`, the cell number change is -19.2%. Besides, under setting [1], the AC50 was 8.91 µM [falling, partial curve].

In the case of `CC1(C)N=C(/C=N/O)CN1O`, under setting [1], the AC50 is 14.6 µM [falling, partial curve, poor fit].

For `Cc1cc(NC(=O)CSc2nc(-c3cccs3)nc3ccccc23)no1`, the cell number change is -11.9%.

Consider `Fc1ccccc1Nc1nc2c(s1)CCc1ccccc1-2`, for which the cell number change is -40.8%. In addition, the AC50 under setting [2] was 29.1 µM [falling, partial curve]. Further, the concentration at half-maximal activity (AC50) under setting [1] was 20.6 µM [falling, partial curve].

Consider `COc1ccccc1N1CCN(C(=O)CCCCn2c(=O)[nH]c3ccsc3c2=O)CC1`, for which the cell number change amounted to 30.4%. Further, the AC50 under setting [2] is 2.06 µM [rising, partial curve]. Further, under setting [1], the AC50 is 1.84 µM [rising, partial curve].

With `N#CC1(c2nc3ccccc3[nH]2)CC1c1ccc2c(c1)OCO2` (configuration not stated), the cell number change stood at 23.7%. Moreover, under setting [1], the AC50 is 0.651 µM [rising, single point].

Take `O=C(O)/C(=C\c1cccc([N+](=O)[O-])c1)c1ccc(S(=O)(=O)N2CCCCC2)s1`: the cell number change was -45.2%. The AC50 under setting [2] is 29.1 µM [falling, single point]. Under setting [1], the half-maximal activity concentration (AC50) is 29.1 µM [falling, single point].

With `Cc1onc(-c2ccccc2)c1C(=O)OCC(=O)N(CC(C)C)c1c(N)n(Cc2ccccc2)c(=O)[nH]c1=O`, the cell number change was found to be 27.9%. Under setting [1], the AC50 was 23.1 µM [rising, partial curve, poor fit].

`CC(C)=C1SC(N2CCOCC2)=NC1=O`: the cell number change was -13.4%. Besides, under setting [1], the AC50 is 2.91 µM [falling, partial curve, poor fit].

Regarding `COc1cc(NC(=O)COC(C)=O)cc(OC)c1OC`, the cell number change is -38.5%.

Consider `COc1ccc(NC(=O)C(C)N2c3cccc4cccc(c34)S2(=O)=O)cc1` (configuration not stated), for which the cell number change is 152%.

For the molecule `COc1ccc(OC)c(/C=C/C(=O)Nc2cccc(S(=O)(=O)N3CCCC3)c2)c1`, the cell number change worked out at 8.92%.

Turning to `CN(C)C(=O)C12CCC(C)(c3nc4ccccc4nc31)C2(C)C` (configuration not stated), the concentration at half-maximal activity (AC50) under setting [2] was 4.61 µM [rising, single point].

Turning to `CN1C2=CC=CC=CC2=[N+](C)C12C=CC(=[N+]([O-])[O-])C=C2[N+](=O)[O-]` (configuration not stated), the cell number change worked out at 5.11%. Also, the AC50 under setting [2] is 0.164 µM [falling, full curve, poor fit]. The concentration at half-maximal activity (AC50) under setting [1] was 0.13 µM [falling, full curve].

Consider `CC(C)(C)CN1CCC(Oc2cccc(C(=O)NCCCOc3cccnc3)c2)CC1`, for which the AC50 under setting [1] is 29.1 µM [falling, partial curve, poor fit].

Regarding `CN(CCOc1ccccc1)C(=O)CCc1nc2sc3c(c2c(=O)[nH]1)CCCC3`, the cell number change is -3.4%. Moreover, under setting [1], the AC50 was 29.1 µM [rising, single point].

Regarding `CN(C(=O)c1ccccc1Cl)c1ccccc1C(=O)NCc1ccccc1`, the cell number change turned out to be 3.47%. Moreover, under setting [1], the AC50 was 6.51 µM [falling, single point].

`Cc1nn(-c2ccccc2)nc1C(N)=O`: the cell number change came to 17.7%. The AC50 under setting [2] was 6.51 µM [falling, partial curve, poor fit]. Besides, under setting [1], the AC50 was 7.31 µM [falling, partial curve, poor fit].

Turning to `Nc1cc(=O)nc(SCC(=O)Nc2ccccc2Cl)n1-c1ccccc1`, the AC50 under setting [1] is 0.164 µM [falling, full curve, poor fit].

For `CC(C)n1c(C(F)(F)F)nc2cc(C(=O)N3CCOCC3)ccc21`, the cell number change is -30.9%. Besides, the AC50 under setting [2] is 0.00461 µM [falling, full curve].

Source of the values: PubChem BioAssay AID2685 (National Center for Advancing Translational Sciences (NCATS), 2010).
